The campaign covered roughly 52,000 sequences. About 210 (0.4%) were called active.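 The calls were made as follows: active = gene whose silencing raises cell survival under the drug, median off-target-corrected z-score across its silencing RNAs 2 or more; inactive = the rest.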 The list shows a part of the results.

The experiment is described as follows: Resistance to Poly (ADP-Ribose) Polymerase inhibitor: Gene Identification via Genome-wide siRNA Screen. The conditions noted are these: mouse BRCA2 R2336H ES cells, olaparib, CellTiter-Glo viability; stronger effect = higher value. The method, boiled down: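 Mouse BRCA2 R2336H ES cells were reverse-transfected with siRNA (20 nM final), treated at 48 h with 500 nM olaparib, and read by CellTiter-Glo after 72 h. Scores: MAD-based z per siRNA, median per gene, seed off-target correction.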
A general note: ATP-based viability assays read luminescence as a measure of living cells.
Consider GGGAUUCGGUGAAGAUUUGTT against Nfe2l1, for which the z-score is inactive: -1.15. Next, CGACAGUUACUUGCCCAGATT against Rasgrp3: inactive: -1.45; GGAUCAUGUGUGAAAUCCUTT against Harsl: inactive: 1.11.

Turning to GCCUUAUUAGAGAAAAGAGTT against Krt2-1, the z-score is inactive: -2.01.

Consider GCGAAUGUAGUGUAUUAUGTT against Prkcm, for which the z-score is inactive: 0.0536. The result for GGAGAUUUAUACACACUUGTT against Snx17 reads inactive: -0.118; that for “GGGAAACUCAAACUGAUUGTT against 9930104L06Rik”, inactive: 0.614.

In the case of GGAAAACACAAGCAAUACATT against Pus3, the z-score is inactive: -0.383.

Regarding GGAAGUGAGUUUCAAAGCCTT against Hist1h1t, the z-score is inactive: -0.503. The result for GGAAAACAGAUACGUGCAUTT against Ccne2 reads inactive: 1.21. As for GGAAGGAGAAAAGCUUUCUTT against Olfr992, the z-score was inactive: -0.105.

With GGGAUCAACAUGAUAUUUUTT against Lrrc21, the z-score is inactive: -0.124. Consider CCGGUGGUAGUUGGUUUAATT against Atp1b1, for which the z-score is inactive: -1.03. The result for “GCUUCAGAACAAGUCCCUGTT against 2410008K03Rik” reads inactive: 0.561; that for CCUCUGUUUGUGCGCCAUATT against Uqcrfs1, inactive: 1.2.

“GGCCAGCUGAAAGAGGUUCTT against 2310003L22Rik”: the z-score is inactive: -0.0092. For the sequence GCACACCCAAUGCUCUAAGTT against Mare, the z-score was inactive: 0.284. Regarding GAAAGACAAGAAGCAGAUGTT against Olig2, the z-score was inactive: -1.23. On to GCAAGUUCGAAUCCUCCGUTT against Dach2, for which the z-score was inactive: 0.747. For GCAUAUGGAGCAGUCAUUGTT against LOC619945, the z-score was inactive: 0.402. In the case of GGAUUGUACGCUUUUAUGATT against Fzd1, the z-score was inactive: 0.968. Next, AAAAAUGUCGGAUUCCCAATT against Gpr113: inactive: 0.745; GGUUACCUACCUGAUGCCATT against Cd6: inactive: -0.0209; GGACGGUGACAAGAACAACTT against Tnnc1: inactive: -0.0203. Next, GGAUGACCUUGAAAGCAGUTT against Usp29: inactive: -0.694; GGCUCAGUACUUUCUAAAATT against V1rg1: inactive: -0.536. Next, “GGAAAGAAAGUUCUUUAGATT against D330023I21Rik”: inactive: 0.809; GGAAUACAGGUUUUCUUAATT against Raf1: inactive: 1.16. As for GGAAUUGAGAAAUCUAAUGTT against Rev1l, the z-score was inactive: -0.921. As for GGUCAUGACCCAUGUCAGCTT against Junb, the z-score is inactive: 1.84. For the sequence GGAGAAAUAACUGAAAUUCTT against Klhl13, the z-score was inactive: 0.783. The result for CCAUGCAUCUAAGUCUCGATT against Trpm3 reads inactive: 1.35; that for GGAAUGACAAGAUUAUUGUTT against Ercc3, inactive: 2.19; that for CCAUCUCCUUAUGGGCAAUTT against Stat6, inactive: -0.199. The result for “CCCAAAUAAAGUUCACUGGTT against 4930566A11Rik” reads inactive: 0.356; that for GGUUUGUGACAUUAUCUGCTT against Wrnip1, inactive: 0.43. Next, GCGUGACGAGCUAACAGAATT against Stac2: inactive: -0.767; GGAGUUUCAGAGCAAGCAGTT against Atp6v1g2: inactive: -0.291. Take GGACGAGGUAGCUUAUUGCTT against Pnn: the z-score is inactive: 0.546. Next, GGGUGUGAUGGUUCUCACCTT against Olfr777: inactive: -0.411. Take GGGCAGCUACGUCAUUAAGTT against Prkg2: the z-score is inactive: 1.36. Consider GCCAUGGCAUAAAAACUGGTT against P2rxl1, for which the z-score is inactive: 0.917. Next, GGACAAGUACCAGCAGCAGTT against Spry2: inactive: 1.89; CCCUAGGCCUUUUUUCUGCTT against Olfr930: inactive: -0.0862. Turning to CGCUAGUUUGGACGGUUUUTT against Odf3, the z-score was inactive: -0.182. Consider GGAAGGUAAUUGCUUUUAGTT against Gmeb1, for which the z-score was inactive: -1.2.

Take GCAGUCUGGUUCUCUCAAATT against Cryl1: the z-score was inactive: 2.21.

For the sequence CCUGCUAGUGGAGAACAUCTT against Rnf30, the z-score is inactive: -2.54. Next, “GCAAGUGUCUUGUCCCAGGTT against D7Ertd680e”: inactive: 0.19; AAGACCUUCCACAUGUUAATT against LOC434197: inactive: 0.159. Regarding GGAAUUCAAGGGCUCCACATT against Grip1, the z-score is inactive: 0.637. For the sequence GGAUAUCAAUAGCCUCAACTT against Stx5a, the z-score is inactive: -1.38. As for GCAGGAUACAUUAAUUGUUTT against AW011752, the z-score is inactive: -0.146. As for GGCAAAACCUACAUGGCCCTT against Drd1a, the z-score was inactive: 0.35. As for CCUCAAACUCGGUUUGAUUTT against Acp6, the z-score is inactive: -1.08. For GGCCGAUUGUUGGACAUUCTT against Card11, the z-score was inactive: -0.061. As for “GGAAACAUCUUGUUGAAGATT against B630019A10Rik”, the z-score is inactive: -0.374.

In the case of CCUAAACAUCACUUGCUCUTT against Cd200, the z-score is inactive: -1.11.

For CGCAUGUGAUUCCUUAUGATT against Sqrdl, the z-score was inactive: -0.298. Next, CGGAUUUAAGCAGAGUGGATT against Fgl1: inactive: 2.1; GGAAAAUUGAUAGCAAGCUTT against LOC382105: inactive: 1.12.

GGUAGUAUUCAGUGAAUACTT against Cks2: the z-score is inactive: -0.528. In the case of GGACCUGUCUUCAUUGGAGTT against Ngb, the z-score is inactive: 2.47. Turning to GGUGUGUGAGAUAAUUGAGTT against Cops6, the z-score was inactive: -1.85.

“GGCUCUUGUCACAUGAUCATT against 5830427H10Rik”: the z-score was inactive: -0.783.

Regarding CCUUUCAAGGAGAUAUAAUTT against Gcm2, the z-score is inactive: -1.1. As for CCACAGACUCUUAAUUAGATT against Ap3b1, the z-score was inactive: 0.44.
